Amino acid sequences for entries named in this document (tags omitted). A change or cut given only in a name is not applied to a line headed by its entry.
UniProt P49591: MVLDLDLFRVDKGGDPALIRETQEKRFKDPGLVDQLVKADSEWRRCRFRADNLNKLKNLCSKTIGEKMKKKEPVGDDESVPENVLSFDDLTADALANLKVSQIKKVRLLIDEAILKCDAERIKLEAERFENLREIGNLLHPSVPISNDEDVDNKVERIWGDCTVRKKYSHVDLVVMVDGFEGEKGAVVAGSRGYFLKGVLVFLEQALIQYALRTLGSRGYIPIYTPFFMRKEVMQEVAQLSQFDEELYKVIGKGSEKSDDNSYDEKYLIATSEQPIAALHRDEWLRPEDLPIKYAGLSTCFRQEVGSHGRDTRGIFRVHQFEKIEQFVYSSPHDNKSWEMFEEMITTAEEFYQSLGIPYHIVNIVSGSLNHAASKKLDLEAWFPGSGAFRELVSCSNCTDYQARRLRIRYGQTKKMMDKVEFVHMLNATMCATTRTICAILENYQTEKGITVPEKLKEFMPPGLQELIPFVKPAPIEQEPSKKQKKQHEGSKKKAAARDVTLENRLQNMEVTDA

This is one part of the list.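 The calls were made as follows: active = dose-dependent thermal stabilisation significant by F-test of dose-response against flat model at 10% FDR; inactive = not significant.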
These molecules were tested against SARS (UniProt P49591) (assay: dose-dependent thermal stabilisation call (2D-TPP, DLPTP, 10% FDR) (binary (1 = stabilised)); higher = stabilised by the compound). Settings: system: Jurkat gel-filtered lysate; concentration range 1-500 µM.
Method: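 2D thermal proteome profiling in gel-filtered Jurkat E6.1 lysate (2 mg/ml) treated with NaGTP (0, 1, 10, 100, 500 uM) for 10 min at room temperature, then heated 3 min at one of 12 temperatures (42-63.9 C). Soluble protein was quantified by TMT10 MS. The value is the DLPTP call of the paper: dose-dependent thermal stabilisation over all temperatures at 10% FDR (F-test of a dose-response against a flat model); one experiment, one call per tested protein.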
In the case of Nc1nc2c(ncn2[C@@H]2O[C@H](COP(=O)(O)OP(=O)(O)OP(=O)(O)O)[C@@H](O)[C@H]2O)c(=O)[nH]1, the “dose-dependent thermal stabilisation call” value is reported as inactive: 0.

Source: the supplement of paper PMC7666118
